These are yes or no findings as the source states them, for the method shown.

Amino acid sequences for entries named in this document (tags omitted). Residues count along the entry.
UniProt Q13017, residues 590-763: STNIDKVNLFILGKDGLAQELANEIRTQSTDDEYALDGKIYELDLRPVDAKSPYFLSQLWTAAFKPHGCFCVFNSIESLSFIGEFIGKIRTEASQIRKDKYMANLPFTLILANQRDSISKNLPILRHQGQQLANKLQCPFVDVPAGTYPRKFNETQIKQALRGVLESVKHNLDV

For two molecules, binding results are on record in PMC5593906.

Assay [1] deals with Homo sapiens (human) p190RhoGAP-B pG1 domain (human) (UniProt Q13017). Put plainly: SEC; gel filtration of the purified, untagged pG1 domain; Superdex 75 prep grade, 20 mM Tris pH 7.5, 150 mM NaCl; both purified.
Assay [2] addresses Xenopus laevis (frog) p190RhoGAP-A pG1 domain (Xenopus laevis) (UniProt Q6NU25). The assay is described as above.

Consider “Homo sapiens (human) p190RhoGAP-B pG1 domain (from UniProt Q13017 590-763) (domain or fragment)”, for which the binding result in assay [1] is listed as “no binding”.

B1: Xenopus laevis (frog) p190RhoGAP-A pG1 domain (domain or fragment, UniProt Q6NU25 587-762)
chain: DPNVDRINLVILGRDGLARELANEIRALCTNDDKYVIDGKMYELSLRPIEGNVRLPVNSFQTSTFQPHGCLCLYNSKESLSYVVESIEKSRESSLGRKENHLINLPLTLILVNRRGDTSSETAHSLIQHGQQVASKLQCVFLDAASTGLGYGRNINEKQISLILRGLLESKRNLNL
For the molecule B1, the binding entry in assay [2] is “no binding”.
